Measurements reported in PubChem BioAssay AID504764 (Drosophila RNAi Screening Center, 2011)
Screen: 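Knock-downs that raise or lower a Notch target reporter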 (primary screen). System: Drosophila Kc167 cells. Reagents: long dsRNA against Drosophila genes. Time to read-out: about 5 days (4 days dsRNA, then 24 h after transfection). Conditions: transfection of constitutively active membrane-tethered Notch lacking the extracellular domain, read 24 h later. Measurement: 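Firefly luciferase from an E(spl)m3 reporter with active Notch, plus control-promoter and uninduced reporter wells for normalisation; unnormalised counts, duplicate wells a and b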. Scale: induced reporter light, run 1, well a and induced reporter light, run 1, well b: higher = more light from the Notch target reporter with active Notch; control promoter light, run 1, well a and control promoter light, run 1, well b: higher = more light from the viral control promoter (cell number, transfection, viability); uninduced reporter light, run 1, well a: higher = more light from the Notch target reporter without active Notch. Rule for the call: 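Wells with low control signal or poorly matching duplicates excluded; duplicates averaged; per source plate, z beyond ±2 for induced/control log2 ratio or beyond ±1.8 for induced/uninduced marks a hit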. Meaning of the calls: active = modifier hit (raised or lowered Notch signal); inactive = not a hit.
The deposit covers about 22,000 reagents; shown is an unselected part of those with a known target gene and a result. In the full data, 403 (1.9%) got an active call. 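Unnormalised raw counts per well; ratio z-scores behind the hit calls and whether each hit raises or lowers signal are not deposited.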 No sequences are given here. The record does not give: the amount of reagent.

| gene | dsRNA | induced reporter light, run 1, well a | induced reporter light, run 1, well b | control promoter light, run 1, well a | control promoter light, run 1, well b | uninduced reporter light, run 1, well a | outcome |
| --- | --- | --- | --- | --- | --- | --- | --- |
| CG3088 | DRSC10352 | 1.06e5 | 1.15e5 | 85240 | 49260 | 9300 | inactive |
| CG12620 | DRSC02177 | 1.44e5 | 1.68e5 | 1.87e5 | 1.69e5 | 12920 | inactive |
| CG31191 | DRSC13455 | 70150 | 65070 | 81325 | 90115 | 7850 | inactive |
| CG31191 | DRSC15214 | 29450 | 31920 | 27195 | 32750 | 1760 | inactive |
| CG31191 | DRSC15215 | 38965 | 33950 | 24730 | 24142 | 6710 | inactive |
| rig | DRSC06053 | 93630 | 86555 | 1.44e5 | 2.17e5 | 6515 | inactive |
| rig | DRSC06400 | 1.86e5 | 1.38e5 | 2.64e5 | 2.96e5 | 9555 | inactive |
| Nse1 | DRSC02147 | 1.03e5 | 1.44e5 | 1.46e5 | 1.65e5 | 14482 | active |
| Ufc1 | DRSC07156 | 97175 | 1.02e5 | 2.05e5 | 2.17e5 | 9615 | inactive |
| CG12868 | DRSC06207 | 1.08e5 | 1.25e5 | 1.89e5 | 1.47e5 | 10385 | inactive |
| CG14326 | DRSC14805 | 2.16e5 | 2.10e5 | 2.26e5 | 2.47e5 | 17265 | inactive |
| Nlp | DRSC16759 | 64775 | 96105 | 87445 | 83635 | 6245 | inactive |

Continued (3 carried over from the part before).
| gene | dsRNA | induced reporter light, run 1, well a | induced reporter light, run 1, well b | control promoter light, run 1, well a | control promoter light, run 1, well b | uninduced reporter light, run 1, well a | outcome |
| --- | --- | --- | --- | --- | --- | --- | --- |
| CG12868 | DRSC06207 | 1.08e5 | 1.25e5 | 1.89e5 | 1.47e5 | 10385 | inactive |
| CG14326 | DRSC14805 | 2.16e5 | 2.10e5 | 2.26e5 | 2.47e5 | 17265 | inactive |
| Nlp | DRSC16759 | 64775 | 96105 | 87445 | 83635 | 6245 | inactive |
| CG6044 | DRSC04522 | 1.90e5 | 2.14e5 | 2.07e5 | 1.80e5 | 17600 | inactive |
| Muc30E | DRSC01101 | 1.22e5 | 1.06e5 | 1.31e5 | 1.35e5 | 9770 | inactive |
| CG5756 | DRSC06950 | 85990 | 93820 | 1.16e5 | 82090 | 6350 | inactive |
| CG1571 | DRSC18068 | 2.38e5 | 1.93e5 | 4.03e5 | 3.35e5 | 15105 | inactive |
| CG9044 | DRSC03130 | 1.83e5 | 1.75e5 | 1.63e5 | 1.64e5 | 12875 | inactive |
| mol | DRSC01431 | 54880 | 50485 | 65515 | 63445 | 5080 | inactive |
| mol | DRSC01912 | 2.37e5 | 2.22e5 | 1.84e5 | 1.92e5 | 17355 | inactive |
| mol | DRSC02479 | 92675 | 1.23e5 | 1.07e5 | 1.18e5 | 7945 | inactive |
| CG6769 | DRSC20006 | 1.12e5 | 1.47e5 | 1.20e5 | 76190 | 11385 | inactive |
| ninaE | DRSC17014 | 2.00e5 | 1.54e5 | 1.77e5 | 2.06e5 | 12020 | inactive |
| CG13154 | DRSC06279 | 1.02e5 | 1.03e5 | 1.45e5 | 1.19e5 | 10120 | inactive |
| Lim3 | DRSC02475 | 62280 | 40845 | 54740 | 37880 | 2455 | inactive |
| Lim3 | DRSC03363 | 27690 | 33880 | 16632 | 13695 | 3790 | inactive |
| Lim3 | DRSC22183 | – | – | – | – | – | inactive |
| CG13026 | DRSC09906 | 2.49e5 | 1.99e5 | 2.40e5 | 2.21e5 | 8470 | inactive |
| Desi | DRSC14909 | 78320 | 77035 | 84600 | 61500 | 6855 | inactive |
| Pex3 | DRSC10731 | 89795 | 1.04e5 | 84075 | 87195 | 8390 | inactive |
| yki | DRSC04437 | 1.18e5 | 1.23e5 | 99160 | 1.20e5 | 9582 | inactive |
| Ir51b | DRSC05540 | 2.22e5 | 1.90e5 | 2.34e5 | 2.78e5 | 16245 | inactive |
| CG7536 | DRSC20050 | 1.17e5 | 1.18e5 | 99870 | 45200 | 9930 | inactive |
| Cad87A | DRSC16161 | 1.04e5 | 1.19e5 | 88810 | 75925 | 8625 | inactive |
| CG14589 | DRSC04866 | 1.61e5 | 1.40e5 | 1.52e5 | 1.54e5 | 11225 | inactive |
